The record followed here is paper PMC8967206, “Pyrimidine-5-carbonitrile based potential anticancer agents as apoptosis inducers through PI3K/AKT axis inhibition in leukaemia K562” (Journal of Enzyme Inhibition and Medicinal Chemistry, 2022).

One data set is described as follows: in vitro. The settings on record: human.
The test system of data set [1] is leukaemia (K562) cell line. The data set is described as follows: MTT colorimetric cytotoxicity assay, K562. The settings on record: Homo sapiens, K562, 48 h, read-out: Cytotoxicity in IC50, K562. (In general: Tetrazolium dyes change colour on reduction, which living cells bring about.)
The subject of data set [2] is breast cancer (MCF-7) cell line. The data set is described as follows: MTT colorimetric cytotoxicity assay, MCF-7. The settings on record: Homo sapiens, MCF7, 48 h, read-out: Cytotoxicity in IC50, MCF-7.
Data set [3] relates to normal fibroblast cell line (WI-38). The data set is described as follows: Cytotoxicity on normal fibroblast cell line. The settings on record: WI-38 versus K562.

The term IC50 denotes the concentration that gives 50% inhibition. In the case of `CN[C@@H]1C[C@H]2O[C@@](C)([C@@H]1OC)n1c3ccccc3c3c4c(c5c6ccccc6n2c5c31)C(=O)NC4` [Staurosporine, reference compound], the figures for the 50% inhibitory concentration (IC50) (in “in vitro”; in data set [1]; in data set [2]) were 22.8 ± 1.38 µM, 11.6 ± 0.55 µM and 9.51 ± 0.52 µM, respectively. In addition, in data set [3], the “SI (selectivity index)” value stood at 1.97.
